Experimental data reported in publication PMC6338662.

Protein sequences, listed by entry. Tags and fused reporters are not part of them. Lines headed by an entry give the natural chain unless they say otherwise; changes in a name come on top.
UniProt Q8NEM0: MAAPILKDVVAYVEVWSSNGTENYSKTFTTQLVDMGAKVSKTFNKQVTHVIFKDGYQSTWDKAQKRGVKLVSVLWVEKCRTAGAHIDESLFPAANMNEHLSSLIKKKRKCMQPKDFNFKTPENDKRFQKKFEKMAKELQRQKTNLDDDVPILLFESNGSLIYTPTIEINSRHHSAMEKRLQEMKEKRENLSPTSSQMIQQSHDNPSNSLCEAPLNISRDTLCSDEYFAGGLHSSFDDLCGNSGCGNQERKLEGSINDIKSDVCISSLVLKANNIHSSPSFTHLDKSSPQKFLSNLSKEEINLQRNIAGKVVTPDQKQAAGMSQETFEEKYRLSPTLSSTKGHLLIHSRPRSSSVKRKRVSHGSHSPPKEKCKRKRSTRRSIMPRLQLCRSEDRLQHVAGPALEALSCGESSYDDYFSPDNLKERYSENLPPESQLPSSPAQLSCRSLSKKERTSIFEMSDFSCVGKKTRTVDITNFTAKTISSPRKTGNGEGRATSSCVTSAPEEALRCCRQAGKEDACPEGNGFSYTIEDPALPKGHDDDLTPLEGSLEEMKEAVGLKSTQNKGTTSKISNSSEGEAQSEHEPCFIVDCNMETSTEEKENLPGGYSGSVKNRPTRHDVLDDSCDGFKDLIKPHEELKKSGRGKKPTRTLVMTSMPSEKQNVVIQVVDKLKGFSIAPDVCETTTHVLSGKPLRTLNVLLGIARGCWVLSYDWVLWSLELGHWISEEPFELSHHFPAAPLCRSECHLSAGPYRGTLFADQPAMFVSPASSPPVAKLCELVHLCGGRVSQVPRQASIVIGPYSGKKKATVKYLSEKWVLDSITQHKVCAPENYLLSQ
UniProt Q9UM11: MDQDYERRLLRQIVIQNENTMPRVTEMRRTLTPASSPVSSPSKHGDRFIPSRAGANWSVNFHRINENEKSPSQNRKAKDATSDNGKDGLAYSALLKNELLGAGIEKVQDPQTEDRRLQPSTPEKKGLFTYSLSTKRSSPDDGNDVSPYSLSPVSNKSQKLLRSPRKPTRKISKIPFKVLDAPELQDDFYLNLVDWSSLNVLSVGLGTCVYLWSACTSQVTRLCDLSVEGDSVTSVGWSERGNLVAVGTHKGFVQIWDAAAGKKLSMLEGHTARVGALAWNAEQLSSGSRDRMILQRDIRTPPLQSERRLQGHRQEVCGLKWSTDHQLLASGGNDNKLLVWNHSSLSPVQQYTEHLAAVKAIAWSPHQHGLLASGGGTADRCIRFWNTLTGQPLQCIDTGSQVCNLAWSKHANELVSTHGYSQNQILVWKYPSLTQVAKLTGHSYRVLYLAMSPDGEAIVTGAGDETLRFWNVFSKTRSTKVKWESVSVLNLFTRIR

Molecular target: GFP–MCPH1-L T753E (phosphomimetic of Thr754) (human) (UniProt Q8NEM0)
Experiment: pull-down; GFP or GFP–MCPH1 variants immunoprecipitated from HEK293 lysate and held on GFP-Trap beads, incubated 3 h at 4°C with HEK293 cell extract containing FLAG–CDH1 (or CDH1 fragments) in NETN buffer (50 mM Tris pH 7.6, 150 mM NaCl, 1 mM EDTA, 1% NP-40); washed 3 times in TBST; Western blot; only the target purified

Question: FLAG–CDH1 (from UniProt Q9UM11 1-496) was tested. Which binding did it give?
Answer: The binding was “binds”.

No constants are given. Whether binding was seen depends on the method and setting. Binding seen in cells or lysates may run through a third protein. A result given as binding can be weak or reduced; the word gives no strength.
